Test results: US20210137953A1, “Inhibitors of Mcl-1 and Akt Binding, Pharmaceutical Compositions, and Uses in Treating Cancer” (Emory University, priority 2019, published 2021)
No constants are given. Whether binding was seen depends on the method and setting. Binding seen in cells or lysates may run through a third protein. Some results given as binding are weak or reduced against the parent protein; the word gives no strength.

The chains behind the UniProt entries cited, without tags or fusion partners. Where a name states a change or a piece, a line headed by the entry shows the natural chain unless it says otherwise.
UniProt Q07820: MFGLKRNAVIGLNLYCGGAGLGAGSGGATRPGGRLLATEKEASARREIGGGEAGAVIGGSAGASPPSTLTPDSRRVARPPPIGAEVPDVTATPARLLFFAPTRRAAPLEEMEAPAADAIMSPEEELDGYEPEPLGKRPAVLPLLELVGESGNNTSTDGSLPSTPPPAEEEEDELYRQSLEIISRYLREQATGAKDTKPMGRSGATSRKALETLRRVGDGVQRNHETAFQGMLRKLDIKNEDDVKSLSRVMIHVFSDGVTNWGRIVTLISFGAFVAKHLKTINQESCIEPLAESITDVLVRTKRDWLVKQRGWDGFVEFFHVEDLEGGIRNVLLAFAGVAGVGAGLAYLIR
UniProt P31749: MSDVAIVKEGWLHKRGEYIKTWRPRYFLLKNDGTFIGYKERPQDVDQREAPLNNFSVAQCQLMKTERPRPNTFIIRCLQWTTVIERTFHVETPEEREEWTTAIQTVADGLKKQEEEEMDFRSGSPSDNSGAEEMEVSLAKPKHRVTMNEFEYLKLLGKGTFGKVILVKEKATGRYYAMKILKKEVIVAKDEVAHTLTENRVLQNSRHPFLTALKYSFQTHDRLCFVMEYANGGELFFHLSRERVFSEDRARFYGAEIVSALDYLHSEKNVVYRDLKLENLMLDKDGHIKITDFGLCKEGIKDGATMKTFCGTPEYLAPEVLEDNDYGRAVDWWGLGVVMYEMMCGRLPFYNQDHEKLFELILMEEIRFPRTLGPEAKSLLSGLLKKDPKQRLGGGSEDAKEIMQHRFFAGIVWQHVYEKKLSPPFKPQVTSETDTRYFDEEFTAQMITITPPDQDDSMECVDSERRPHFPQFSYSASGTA

Molecular target: Flag-tagged WT Mcl-1 (UniProt Q07820)
Experiment: GST pull-down after co-transfection with Flag-tagged WT Mcl-1

binding	Substance
binds	GST-tagged Akt 8 (WT) (from UniProt P31749 1-480) (enzyme)
binds	GST-tagged Akt deletion mutant 1 (GST-PH domain) (from UniProt P31749 4-111)
